Laboratory results reported in article PMC5339707, “ACCORD: an assessment tool to determine the orientation of homodimeric coiled-coils” (Scientific Reports, 2017).

Molecular target: the molecule itself
Assay: SEC-MALS; self-association of His6-SspB-CCD fusion proteins (ACCORD); Superdex 200 10/300 GL, 50 mM Tris pH 8.0, 0.5 mM TCEP, 200 mM NaCl; sample 3-5 mg/ml, 0.5 ml

B1: His6-SspB-GCN4 (249-281) fusion protein (other, E. coli | S. cerevisiae, UniProt P0AFZ3 1-165, looked up)
chain: MDLSQLTPRRPYLLRAFYEWLLDNQLTPHLVVDVTLPGVQVPMEYARDGQIVLNIAPRAVGNLELANDEVRFNARFGGIPRQVSVPLAAVLAIYARENGAGTMFEPEAAYDEDTSIMNDEEASADNETVMSVIDGDKPDHDDDTHPDDEPPQPPRGGRPALRVVKRMKQLEDKVEELLSKNYHLENEVARLKKLVGER
notes: Stringent starvation protein B (SspB), E. coli, full length, residues 1-165 (M1-K165), amplified from genomic DNA; General control protein GCN4, S. cerevisiae, coiled-coil domain, residues 249-281 (R249-R281); CCD ligated behind SspB in the His6-SspB vector (BamHI at the 5' end); vector holds TEV and thrombin cleavage sites; source: E. coli BL21(DE3), purified (HisTrap, Superdex 200); not shown: …
**Q.** With B1 as the protein, how does the “stoichiometry N” value read?
**A.** 2
